# From PubChem BioAssay AID1347423 (Functional Genomics Laboratory (NCATS/FGL), 2020)
# In all, about 52,000 sequences went through this assay and about 210 (0.4%) were called active.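 The calls were made as follows: active = gene whose silencing raises cell survival under the drug, median off-target-corrected z-score across its silencing RNAs 2 or more; inactive = the rest.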 The list shows a part of the results.
# Experiment: Resistance to Poly (ADP-Ribose) Polymerase inhibitor: Gene Identification via Genome-wide siRNA Screen
# Details: mouse BRCA2 R2336H ES cells, olaparib, CellTiter-Glo viability; active compounds read high
# Method in brief: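 Genome-wide siRNA screen (3 siRNAs/gene, 20 nM) in mouse ES cells carrying hypomorphic BRCA2 R2336H; olaparib 500 nM added 48 h post-transfection, CellTiter-Glo viability 72 h later. Normalized to plate-median negative control; MAD z-scores, gene median, seed-adjusted.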
row,Sequence,z-score
1,CCAUUCUUAGUUCACUAUATT against 1190002H23Rik,inactive: 0.112
2,GCAGAAUGGCCUCUUCUACTT against C1qtnf2,inactive: 0.0833
3,GCUUUCCGGAAUACGAGCUTT against Snapc3,inactive: -0.406
4,CCUCAAGAUAGGUUUCUACTT against Mmp23,inactive: -0.49
5,GGACAAAGUGACUUCUUGUTT against Gng7,inactive: 0.363
6,GGUUGAGGUUGGUAAAAAUTT against Havcr2,inactive: 0.426
7,CGCGGACAUCUAUGACAAATT against Phpt1,inactive: -0.848
8,GGAAUGCAGAAGAUUGUUATT against Olfr745,inactive: -0.489
9,GGAGAAGAAGAUUUUUGGCTT against Gpr108,inactive: -0.111
10,GGAAUGUUCCGAUUAUUUATT against 4933425K02Rik,inactive: 1.79
11,GCCGCACAUGAACAGAACCTT against 2900006B13Rik,inactive: 0.235
12,GGCCUACGAAGUGCAAAGATT against 2610511M17Rik,inactive: 0.823
13,GCCUUCGACAGUUUCUAGATT against Grca,inactive: -0.222
14,CCAGUUCACCAUAUGCUGCTT against Tdpoz3,inactive: -0.0743
15,GGGAACAGAAAUUAAAGGATT against Fanca,inactive: 1.64
16,GGUCAAAAGACUGUACAUATT against MGC117751,inactive: 0.354
17,GGAAGAUUUCACAUCUCAGTT against Pdir,inactive: 1.82
18,GGUACAUGAUCAAUUUAGATT against D10Bwg0791e,inactive: 1.47
19,GGCUAAUGUAGUAAACCACTT against Olfr965,inactive: -0.891
20,GCUUUAACCUGGUUUAGUATT against Pdzx,inactive: 0.272
21,GGAACUCAGGGAAUAUAUUTT against Mtnr1a,inactive: -1.64
22,GCCUUUCUGAGGGAUUUUGTT against 2010003J03Rik,inactive: 0.486
23,CCCUAAGUUACCUCUUUCGTT against Ndufs8,inactive: 0.201
24,CCACCUAAUUUCCUAGAUCTT against Gm604,inactive: -0.727
25,GGAUCUCAGAAGCUUAGUUTT against Sca7,inactive: -0.489
26,CAUUGGAAAGAAUGGCCUUTT against Olfr890,inactive: 0.109

# 2 records drawn at random from those above:
row,Sequence,z-score
21,GGAACUCAGGGAAUAUAUUTT against Mtnr1a,inactive: -1.64
3,GCUUUCCGGAAUACGAGCUTT against Snapc3,inactive: -0.406

# Next entries.

row,Sequence,z-score
1,GGGUGACAUGAUUUUAACUTT against Fbxo18,inactive: 0.856
2,GCUUAAGUGGAGGUCCCUUTT against AW125688,inactive: -0.89
3,GUAUGUUCAUAUGGUUUUCTT against 2900010J23Rik,inactive: -1.7
4,CCGUCAUGACUUUGUUCUATT against Plcg1,inactive: -0.455
5,GAAAAAGGGUGACAAGACUTT against Nppc,inactive: 0.969
6,CCCAGUUCACAUUAAAACATT against Tloc1,inactive: 0.338
7,GGGACAGAACUUAAAUGUATT against Mup4,inactive: -0.696
8,GGAUUGUAAUAAUGGAGCCTT against H2-M10.4,inactive: -0.56
9,CCUCGUGUUACUUUUACCCTT against Olfr13,inactive: -0.0366
10,GGAUGUAGAUGUUGGUUUUTT against Kcnj14,inactive: 1.37
11,GGAUUGCCCUGUUGUGGUGTT against Snx17,inactive: 0.27
12,CGGUAUUGGUCCAGAAGUGTT against Dte,inactive: -1.73
13,GGACUCAAGAGAAAUUCAATT against Card15,inactive: 2.32
14,CGGUUAAAAGCCCUCAGCATT against Olfr592,inactive: -1.24
15,GCAUAAGGUGGUUAAUGACTT against Rps15a,inactive: 1.25
16,CGAAGUUGUUGAGAACUCATT against Pcdhb18,inactive: -0.681
17,GCUUACUUGGUGCUCGUGUTT against 4832428D23Rik,inactive: -1.01
18,GGUGAAGCUUCGAAUGACUTT against Slc25a10,inactive: -0.596
19,GGUCUGCUCAAUGCUAUCATT against Olfr918,inactive: -2.24
20,GGCUUCUAAGCACAAAGUATT against Ppp2r5a,inactive: -0.837
21,GCAUAGGCUAGGUUAUUAUTT against Lep,inactive: 1.4
22,GGCCAGCAUCCAUGUUUUATT against Cacng1,inactive: -0.98
23,GGCAAUAAAUAUCCAGAAATT against Crygn,inactive: -0.0657
24,GGUAGAAGAAUUGUUUGUGTT against C130096D04Rik,inactive: 1.32
25,GCUCUGAAAUGUCUCUCCATT against LOC547343,inactive: 0.0138
26,GGAGAGCUGGUGUUUUAGATT against Tnfrsf17,inactive: -0.328

# Already shown: entries from further up.
row,Sequence,z-score
16,CGAAGUUGUUGAGAACUCATT against Pcdhb18,inactive: -0.681
17,GCUUACUUGGUGCUCGUGUTT against 4832428D23Rik,inactive: -1.01
18,GGUGAAGCUUCGAAUGACUTT against Slc25a10,inactive: -0.596
19,GGUCUGCUCAAUGCUAUCATT against Olfr918,inactive: -2.24
20,GGCUUCUAAGCACAAAGUATT against Ppp2r5a,inactive: -0.837
21,GCAUAGGCUAGGUUAUUAUTT against Lep,inactive: 1.4

# Remaining list, next part:

row,Sequence,z-score
1,CCCUCAAAGACCUGUACAUTT against Gm266,inactive: -1.64
2,CCGUUUUGAGAUCUGUUAATT against 4930465K10Rik,inactive: -0.756
3,CCCUUGAUUAAGUGGAUUATT against Tgfa,inactive: -0.0563
4,GGAAAUCCUGGAAAACAAATT against 1110030L07Rik,inactive: -0.492
5,GGUGUUUUAAGAUUGAAUGTT against Cyr61,inactive: 0.212
6,GGAAAAGGAAGAAGAGGCATT against Zfpm1,inactive: -0.71
7,GCAUAGAAAGCAUAGGUCCTT against Mrgprc11,inactive: 0.399
8,CCCGAUAUAAUCAAGAAACTT against Pld3,inactive: 0.531
9,GGAUAAAAGAGAAGAGUGUTT against Glmn,inactive: 0.735
10,GCCUUUUAACUUAUUCUUGTT against Hey2,inactive: 1.36
11,GGGACAAAACCUUGACAGUTT against V1rh5,inactive: -0.551
12,GCUCGUUGACAAGAAGAGUTT against BC018465,inactive: -0.52
13,GGUUCGGGUAAAUAGUUCCTT against BC030440,inactive: -0.931
14,GGUCCUAAACCACUUCAGCTT against Gtf2f1,inactive: 0.454
15,GGAAUGUCGAAUUGAUUGUTT against Klrb1d,inactive: 0.344
16,GGAUGACCCACUGGUGACUTT against Gng8,inactive: 0.175
17,GGAAACAUCUGGACUCCACTT against Dhrs10,inactive: -2.59
18,GGGCAAUUAUCUUUGUUAUTT against Olfr589,inactive: 0.296
19,CCUAAACCAGUCUUUUCUCTT against 5033428A16Rik,inactive: 2.05
20,GGUUAUCCAGAGAGAAGGATT against Asxl2,inactive: -2.71
21,GCCCAACCUAGAUGAACCUTT against E030010A14,inactive: 0.109
22,GGUUCCUCAAGAUCAUCAUTT against P2ry13,inactive: 0.762
23,CCUUAUUCUGGAAUACCUGTT against AF155546,inactive: 1.25
24,GGGAGAUCGAACAGAAUGGTT against C630016B22Rik,inactive: -2.33
25,GGAAGACAUUACCAAGUCATT against Impa1,inactive: -1.57
26,CCCUUACAUACCAAAGAAATT against Pkp4,inactive: -0.533

row,Sequence,z-score
1,GGUCUUUCUUCGAGGAGUCTT against 4930535E21Rik,inactive: 0.57
2,GCAGCAUUAGUGACUUAAUTT against Mcph1,inactive: -0.902
3,AACAUCCAAACCCAAGAGATT against MGC118250,inactive: 0.553
4,GGGAAAUAAAGGUUAUGCCTT against 2810432D09Rik,inactive: 0.307
5,GGCGACAGUUGUUUUUGUGTT against AU022726,inactive: 0.641
6,GCUUUUUGUGGAGCAUUUUTT against Olfr1261,inactive: -2.45
7,GGAUAACGAACAUUUCAUCTT against Ntrk2,inactive: 0.601
8,GGUAGGCUGUGUUUGUCGGTT against Poldip3,inactive: -1.12
9,GGCCCAUGUUUAUUUAUGGTT against Hsd3b6,inactive: 0.00967
10,GCCUUCUUACCUGUUAGACTT against Wbscr22,inactive: -1.28
11,GGAACACACACUCUGGAAUTT against 4933425O20Rik,inactive: 0.362
12,CCUAUCUUAUGAUGACAUATT against 1700013E18Rik,inactive: -0.531
13,CGACCAUCUUUACUUUAUCTT against Ick,inactive: 0.454
14,GCUCACCUUCAGGUAAGCGTT against Gm185,inactive: 0.547
15,GGCUCAGAUGAUGAGCUUUTT against Hic2,inactive: 0.941
16,GCAGAGUGACUUUGAAGCGTT against Tieg1,inactive: 0.184
17,GGACAAGUACUUCAUGAUCTT against Gosr2,inactive: -0.103
18,CGCAUAUCUAGAAUGGUUATT against 2810021J22Rik,inactive: 0.333
19,GGAUAAGACAGUUCCUAGCTT against Tap1,inactive: 0.292
20,GGAUUCCCGUACAACCAACTT against 4933407P14Rik,inactive: 1.14
21,CGAAUUAUCCAAACAAAUGTT against Shcbp1,inactive: -0.236
22,GGAACGUAUACCUAUACCCTT against Huwe1,inactive: -0.698
23,GGCUGCCUAUUAUGAGAAGTT against Acy3,inactive: 0.307
24,GCCACCAUUAGGACAAGAUTT against 4933409G03Rik,inactive: 2.43
25,GGCAAAAAGGGAUGUUACCTT against Map1lc3b,inactive: -0.194
26,GGGAAGAAGAAAAAGAUGATT against C230081A13Rik,inactive: -0.774
